In test [1] the target is T1, Smc4-3xStrepII (budding yeast (S. cerevisiae)), Q12267.
T1 chain: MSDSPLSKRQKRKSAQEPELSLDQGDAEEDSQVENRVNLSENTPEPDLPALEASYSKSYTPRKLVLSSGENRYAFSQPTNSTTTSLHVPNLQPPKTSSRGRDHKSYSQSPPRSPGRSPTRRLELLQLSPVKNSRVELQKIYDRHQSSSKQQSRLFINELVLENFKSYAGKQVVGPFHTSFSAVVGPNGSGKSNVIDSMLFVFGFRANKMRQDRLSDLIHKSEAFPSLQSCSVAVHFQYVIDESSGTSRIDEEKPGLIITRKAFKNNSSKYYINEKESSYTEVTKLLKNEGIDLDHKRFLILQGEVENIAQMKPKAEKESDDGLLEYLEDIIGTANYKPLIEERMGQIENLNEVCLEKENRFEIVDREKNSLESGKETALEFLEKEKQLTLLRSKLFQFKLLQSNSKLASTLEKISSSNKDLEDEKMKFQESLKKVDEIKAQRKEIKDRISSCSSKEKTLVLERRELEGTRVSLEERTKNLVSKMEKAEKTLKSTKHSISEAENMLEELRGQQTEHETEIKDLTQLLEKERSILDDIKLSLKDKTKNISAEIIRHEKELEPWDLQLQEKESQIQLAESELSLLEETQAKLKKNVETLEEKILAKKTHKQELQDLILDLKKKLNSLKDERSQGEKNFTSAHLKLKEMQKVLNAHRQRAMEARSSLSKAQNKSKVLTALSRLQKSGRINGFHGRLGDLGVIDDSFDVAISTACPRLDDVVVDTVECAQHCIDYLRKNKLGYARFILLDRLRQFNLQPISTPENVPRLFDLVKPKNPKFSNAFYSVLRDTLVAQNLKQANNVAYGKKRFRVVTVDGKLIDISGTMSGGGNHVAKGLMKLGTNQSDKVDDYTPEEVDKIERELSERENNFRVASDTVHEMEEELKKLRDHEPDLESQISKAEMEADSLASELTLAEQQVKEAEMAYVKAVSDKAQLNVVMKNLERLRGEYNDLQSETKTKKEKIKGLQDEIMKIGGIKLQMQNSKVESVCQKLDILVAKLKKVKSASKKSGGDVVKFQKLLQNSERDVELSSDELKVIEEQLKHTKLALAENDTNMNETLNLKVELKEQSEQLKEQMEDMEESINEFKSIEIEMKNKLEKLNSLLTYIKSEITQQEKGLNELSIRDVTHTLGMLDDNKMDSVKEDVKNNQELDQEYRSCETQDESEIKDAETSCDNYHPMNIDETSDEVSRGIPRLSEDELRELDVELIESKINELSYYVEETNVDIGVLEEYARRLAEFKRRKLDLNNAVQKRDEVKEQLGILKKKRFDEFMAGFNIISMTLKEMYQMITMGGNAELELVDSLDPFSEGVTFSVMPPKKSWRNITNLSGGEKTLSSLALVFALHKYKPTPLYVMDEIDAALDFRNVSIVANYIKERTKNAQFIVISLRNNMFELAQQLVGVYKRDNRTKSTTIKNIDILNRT
Put plainly: cryo-EM structure; condensin pentamer (Smc2, Smc4, Brn1, Ycs4, Ycg1) with 80-bp dsDNA, 5 mM ADP, 1 mM BeSO4, 10 mM NaF in TNT buffer pH 7.5; separate maps of the clamped head module and of Ycg1-DNA; both purified. Conditions: remark: other sources report otherwise.

The target in a further test is T2, Ycs4 (S. cerevisiae, UniProt Q06156 1-1176).
T2 construct: Ycs4, HAWK (HEAT repeat) subunit of S. cerevisiae condensin
T2 sequence: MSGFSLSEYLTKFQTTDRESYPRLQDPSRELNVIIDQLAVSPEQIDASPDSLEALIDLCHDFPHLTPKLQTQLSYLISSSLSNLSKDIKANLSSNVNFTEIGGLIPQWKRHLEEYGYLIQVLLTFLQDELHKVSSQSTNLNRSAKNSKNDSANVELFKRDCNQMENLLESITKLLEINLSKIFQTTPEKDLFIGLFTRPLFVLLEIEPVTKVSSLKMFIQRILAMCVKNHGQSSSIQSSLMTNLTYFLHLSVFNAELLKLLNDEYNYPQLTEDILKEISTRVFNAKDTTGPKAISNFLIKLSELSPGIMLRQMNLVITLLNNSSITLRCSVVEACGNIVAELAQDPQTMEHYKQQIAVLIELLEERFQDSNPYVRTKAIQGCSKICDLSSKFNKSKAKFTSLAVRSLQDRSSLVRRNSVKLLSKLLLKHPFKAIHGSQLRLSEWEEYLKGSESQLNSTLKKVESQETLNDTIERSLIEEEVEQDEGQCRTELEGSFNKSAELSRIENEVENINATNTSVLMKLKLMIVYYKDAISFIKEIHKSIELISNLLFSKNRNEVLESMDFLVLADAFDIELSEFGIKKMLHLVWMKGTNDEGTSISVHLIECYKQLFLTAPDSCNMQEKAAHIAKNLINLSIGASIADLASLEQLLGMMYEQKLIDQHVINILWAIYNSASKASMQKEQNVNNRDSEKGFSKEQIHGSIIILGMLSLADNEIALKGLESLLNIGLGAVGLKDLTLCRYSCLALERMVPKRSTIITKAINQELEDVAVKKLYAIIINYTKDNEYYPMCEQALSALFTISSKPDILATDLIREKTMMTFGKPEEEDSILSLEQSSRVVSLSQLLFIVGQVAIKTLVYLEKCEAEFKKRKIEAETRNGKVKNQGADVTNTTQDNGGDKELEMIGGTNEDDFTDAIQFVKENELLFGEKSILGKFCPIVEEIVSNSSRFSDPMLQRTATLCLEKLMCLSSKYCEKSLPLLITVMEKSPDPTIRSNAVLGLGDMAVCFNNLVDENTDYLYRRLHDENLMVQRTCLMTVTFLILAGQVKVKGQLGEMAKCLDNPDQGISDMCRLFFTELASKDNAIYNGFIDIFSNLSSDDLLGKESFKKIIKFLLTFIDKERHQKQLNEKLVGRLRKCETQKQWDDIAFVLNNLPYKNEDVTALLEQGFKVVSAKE
The test is described as above.

Results are given in words; binding and its absence hold for the method and conditions named.

B1: Ycg1, Q06680 1-1035 (protein)
chain: MQDPDGIDINTKIFNSVAEVFQKAQGSYAGHRKHIAVLKKIQSKAVEQGYEDAFNFWFDKLVTKILPLKKNEIIGDRIVKLVAAFIASLERELILAKKQNYKLTNDEEGIFSRFVDQFIRHVLRGVESPDKNVRFRVLQLLAVIMDNIGEIDESLFNLLILSLNKRIYDREPTVRIQAVFCLTKFQDEEQTEHLTELSDNEENFEATRTLVASIQNDPSAEVRRAAMLNLINDNNTRPYILERARDVNIVNRRLVYSRILKSMGRKCFDDIEPHIFDQLIEWGLEDRELSVRNACKRLIAHDWLNALDGDLIELLEKLDVSRSSVCVKAIEALFQSRPDILSKIKFPESIWKDFTVEIAFLFRAIYLYCLDNNITEMLEENFPEASKLSEHLNHYILLRYHHNDISNDSQSHFDYNTLEFIIEQLSIAAERYDYSDEVGRRSMLTVVRNMLALTTLSEPLIKIGIRVMKSLSINEKDFVTMAIEIINDIRDDDIEKQEQEEKIKSKKINRRNETSVDEEDENGTHNDEVNEDEEDDNISSFHSAVENLVQGNGNVSESDIINNLPPEKEASSATIVLCLTRSSYMLELVNTPLTENILIASLMDTLITPAVRNTAPNIRELGVKNLGLCCLLDVKLAIDNMYILGMCVSKGNASLKYIALQVIVDIFSVHGNTVVDGEGKVDSISLHKIFYKVLKNNGLPECQVIAAEGLCKLFLADVFTDDDLFETLVLSYFSPINSSNEALVQAFAFCIPVYCFSHPAHQQRMSRTAADILLRLCVLWDDLQSSVIPEVDREAMLKPNIIFQQLLFWTDPRNLVNQTGSTKKDTVQLTFLIDVLKIYAQIEKKEIKKMIITNINAIFLSSEQDYSTLKELLEYSDDIAENDNLDNVSKNALDKLRNNLNSLIEEINERSETQTKDENNTANDQYSSILGNSFNKSSNDTIEHAADITDGNNTELTKTTVNISAVDNTTEQSNSRKRTRSEAEQIDTSKNLENMSIQDTSTVAKNVSFVLPDEKSDAMSIDEEDKDSESFSEVC
Turning to B1, in test [1], the binding result was “no binding”.

B2: Ycg1 (protein, UniProt Q06680 1-1035)
chain: MQDPDGIDINTKIFNSVAEVFQKAQGSYAGHRKHIAVLKKIQSKAVEQGYEDAFNFWFDKLVTKILPLKKNEIIGDRIVKLVAAFIASLERELILAKKQNYKLTNDEEGIFSRFVDQFIRHVLRGVESPDKNVRFRVLQLLAVIMDNIGEIDESLFNLLILSLNKRIYDREPTVRIQAVFCLTKFQDEEQTEHLTELSDNEENFEATRTLVASIQNDPSAEVRRAAMLNLINDNNTRPYILERARDVNIVNRRLVYSRILKSMGRKCFDDIEPHIFDQLIEWGLEDRELSVRNACKRLIAHDWLNALDGDLIELLEKLDVSRSSVCVKAIEALFQSRPDILSKIKFPESIWKDFTVEIAFLFRAIYLYCLDNNITEMLEENFPEASKLSEHLNHYILLRYHHNDISNDSQSHFDYNTLEFIIEQLSIAAERYDYSDEVGRRSMLTVVRNMLALTTLSEPLIKIGIRVMKSLSINEKDFVTMAIEIINDIRDDDIEKQEQEEKIKSKKINRRNETSVDEEDENGTHNDEVNEDEEDDNISSFHSAVENLVQGNGNVSESDIINNLPPEKEASSATIVLCLTRSSYMLELVNTPLTENILIASLMDTLITPAVRNTAPNIRELGVKNLGLCCLLDVKLAIDNMYILGMCVSKGNASLKYIALQVIVDIFSVHGNTVVDGEGKVDSISLHKIFYKVLKNNGLPECQVIAAEGLCKLFLADVFTDDDLFETLVLSYFSPINSSNEALVQAFAFCIPVYCFSHPAHQQRMSRTAADILLRLCVLWDDLQSSVIPEVDREAMLKPNIIFQQLLFWTDPRNLVNQTGSTKKDTVQLTFLIDVLKIYAQIEKKEIKKMIITNINAIFLSSEQDYSTLKELLEYSDDIAENDNLDNVSKNALDKLRNNLNSLIEEINERSETQTKDENNTANDQYSSILGNSFNKSSNDTIEHAADITDGNNTELTKTTVNISAVDNTTEQSNSRKRTRSEAEQIDTSKNLENMSIQDTSTVAKNVSFVLPDEKSDAMSIDEEDKDSESFSEVC
Turning to B2, the binding result with Ycs4 is “no binding”.
